This note sets out measurements from patent US9161927B2, “Drug combinations containing PDE4 inhibitors and NSAIDs” (Boehringer Ingelheim International GmbH, priority 2009, dated 2015).

The test system of the data set is male Wistar rats. The data set can be described thus: Experiment 4: roflumilast-mediated diarrhoea and mesentery histopathology in rats, with or without SC-560 or lumiracoxib. Type of data set: in vivo, rat.
Setting [1] is: NSAID 2 mg/kg at 0800 and 1700 co-administered with roflumilast 10 mg/kg at 1300, p.o. for four days.
Where [2] appears, read: affected animals out of animals examined, p.o. for four days, 95 hours after t0, roflumilast 10 mg/kg at 1300, SC-560 or lumiracoxib 2 mg/kg at 0800 and 1700.

Consider `COc1ccc(-n2nc(C(F)(F)F)cc2-c2ccc(Cl)cc2)cc1` [SC-560], for which, under setting [1], the “protective effect on roflumilast-mediated multifocal perivascular mononuclear infiltration in the mesentery” value is listed as “only a very slight protective effect” and the “protective effect on roflumilast-mediated proliferation of fibroblasts in the mesentery” value is “only a very slight protective effect”. Further, under setting [2], the “Mesentery: Proliferation of fibroblasts” value is 0/5 and the “Mesentery: multifocal perivascular mononuclear infiltration (= inflammation parameter)” value is reported as 0/5.
